{"source": "PubChem BioAssay AID504795 (Drosophila RNAi Screening Center, 2011)", "screen": "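Fly genes whose loss alters neurite growth or neural cell form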 (primary screen)", "cells": "primary Drosophila neurons and glia", "reagents": "long dsRNA against Drosophila genes, 250 ng dsRNA per well", "time to read-out": "one week", "measured": "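GFP-labelled neurons and glia imaged live by automated microscope one week after 250 ng dsRNA per well; morphology scored by eye as descriptive phenotype terms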", "note": "The reagents shown are a selection, not the whole library. 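Every listed dsRNA shows some phenotype; how reagents were selected for listing is not stated.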 A plus sign joins genes that one reagent is predicted to hit."}
{"Gene": "Bap170 (Brahma associated protein 170kD)", "DRSC id": "DRSC21826", "phenotype seen, replicate 1": "axon bundles split apart"}
{"Gene": "mRpL19 (mitochondrial ribosomal protein L19)", "DRSC id": "DRSC16367", "phenotype seen, replicate 1": "axon bundles split apart"}
{"Gene": "Nckx30C", "DRSC id": "DRSC02689", "phenotype seen, replicate 1": "axon bundles split apart"}
{"Gene": "RpS2 (Ribosomal protein S2)", "DRSC id": "DRSC03614", "phenotype seen, replicate 1": "too many neurite branches"}
{"Gene": "CG3546", "DRSC id": "DRSC18308", "phenotype seen, replicate 1": "axon bundles split apart"}
{"Gene": "CG45105", "DRSC id": "DRSC15002", "phenotype seen, replicate 1": "sheet-like cell extensions"}
{"Gene": "wcy (wacky)", "DRSC id": "DRSC20132", "phenotype seen, replicate 1": "cell fragments present"}
{"Gene": "glec (gliolectin)", "DRSC id": "DRSC16958", "phenotype seen, replicate 1": "abnormal cell clusters"}
{"Gene": "ken (ken and barbie)", "DRSC id": "DRSC04696", "phenotype seen, replicate 1": "too many neurite branches"}
{"Gene": "Sin3A", "DRSC id": "DRSC07552", "phenotype seen, replicate 1": "weaker green signal"}
{"Gene": "CG7025", "DRSC id": "DRSC03002", "phenotype seen, replicate 1": "cell fragments present"}
{"Gene": "CG13063", "DRSC id": "DRSC09946", "phenotype seen, replicate 1": "axon bundles split apart", "phenotype seen, replicate 2": "axon bundles split apart"}
{"Gene": "mol (moladietz)", "DRSC id": "DRSC02479", "phenotype seen, replicate 1": "sheet-like cell extensions"}
{"Gene": "epsilonCOP (Coat Protein (coatomer) epsilon)", "DRSC id": "DRSC02003", "phenotype seen, replicate 1": "too many neurite branches"}
{"Gene": "Map205 (Microtubule-associated protein 205)", "DRSC id": "DRSC16732", "phenotype seen, replicate 1": "cell fragments present"}
{"Gene": "RunxB (Runt related B)", "DRSC id": "DRSC20526", "phenotype seen, replicate 1": "reduced axon outgrowth"}
{"Gene": "CG17493", "DRSC id": "DRSC03798", "phenotype seen, replicate 1": "fewer cells"}
{"Gene": "l(3)80Fj (lethal (3) 80Fj)", "DRSC id": "DRSC20989", "phenotype seen, replicate 1": "sheet-like cell extensions"}
{"Gene": "Cap-D2 (CAP-D2 condensin subunit)", "DRSC id": "DRSC15401", "phenotype seen, replicate 1": "cell fragments present"}
{"Gene": "CG10597", "DRSC id": "DRSC19357", "phenotype seen, replicate 1": "abnormal cell clusters"}
{"Gene": "CalpA (Calpain-A)", "DRSC id": "DRSC07352", "phenotype seen, replicate 1": "too many neurite branches"}
{"Gene": "Nnf1a", "DRSC id": "DRSC06394", "phenotype seen, replicate 1": "beaded; swollen axons"}
{"Gene": "futsch", "DRSC id": "DRSC17688", "phenotype seen, replicate 1": "axon bundles split apart"}
{"Gene": "Polr2F (RNA polymerase II, I and III subunit F)", "DRSC id": "DRSC12366", "phenotype seen, replicate 1": "too many neurite branches"}
{"Gene": "RpL27 (Ribosomal protein L27)", "DRSC id": "DRSC15638", "phenotype seen, replicate 1": "beaded; swollen axons"}
{"Gene": "InR (Insulin-like receptor)", "DRSC id": "DRSC16717", "phenotype seen, replicate 1": "fewer cells"}
{"Gene": "CG13991", "DRSC id": "DRSC02323", "phenotype seen, replicate 1": "fewer cells"}
{"Gene": "ZnT41F (Zinc transporter 41F)", "DRSC id": "DRSC04850", "phenotype seen, replicate 1": "axon bundles split apart"}
{"Gene": "CG17122", "DRSC id": "DRSC10245", "phenotype seen, replicate 1": "abnormal cell clusters"}
{"Gene": "Or47b (Odorant receptor 47b)", "DRSC id": "DRSC07492", "phenotype seen, replicate 1": "abnormal cell clusters"}
{"Gene": "beat-IV (beaten path IV)", "DRSC id": "DRSC14195", "phenotype seen, replicate 1": "cell fragments present"}
{"Gene": "CG31871", "DRSC id": "DRSC02567", "phenotype seen, replicate 1": "abnormal cell clusters"}
{"Gene": "alpha-Man-Ic (alpha-Mannosidase class I c)", "DRSC id": "DRSC21674", "phenotype seen, replicate 1": "too many neurite branches"}
{"Gene": "FoxP (Forkhead box P)", "DRSC id": "DRSC21961", "phenotype seen, replicate 1": "too many neurite branches"}
{"Gene": "promL (prominin-like)", "DRSC id": "DRSC08733", "phenotype seen, replicate 1": "beaded; swollen axons"}
{"Gene": "Ank2 (Ankyrin 2)", "DRSC id": "DRSC08894", "phenotype seen, replicate 1": "beaded; swollen axons"}
{"Gene": "CG42496 + Ppcdc", "DRSC id": "DRSC03886", "phenotype seen, replicate 1": "abnormal cell clusters"}
{"Gene": "Lcp65APsi (pseudo)", "DRSC id": "DRSC10342", "phenotype seen, replicate 1": "sheet-like cell extensions"}
{"Gene": "SPR (Sex peptide receptor)", "DRSC id": "DRSC21557", "phenotype seen, replicate 1": "axon bundles split apart"}
{"Gene": "CG6553", "DRSC id": "DRSC07002", "phenotype seen, replicate 1": "beaded; swollen axons"}
{"Gene": "wrd (well-rounded)", "DRSC id": "DRSC16344", "phenotype seen, replicate 1": "too many neurite branches"}
{"Gene": "kl-5 (retired record)", "DRSC id": "DRSC21161", "phenotype seen, replicate 1": "abnormal cell clusters"}
{"Gene": "CG9649", "DRSC id": "DRSC16534", "phenotype seen, replicate 1": "too many neurite branches"}
{"Gene": "CG10265", "DRSC id": "DRSC21680", "phenotype seen, replicate 1": "axon bundles split apart"}
{"Gene": "rhea", "DRSC id": "DRSC11300", "phenotype seen, replicate 1": "abnormal cell clusters"}
{"Gene": "rec (recombination-defective)", "DRSC id": "DRSC14998", "phenotype seen, replicate 1": "axon bundles split apart"}
{"Gene": "Gpdh1 (Glycerol-3-phosphate dehydrogenase 1)", "DRSC id": "DRSC03336", "phenotype seen, replicate 1": "reduced axon outgrowth"}

Reformatted: entries from further up.
Gene	DRSC id	phenotype seen, replicate 1	phenotype seen, replicate 2
wrd (well-rounded)	DRSC16344	too many neurite branches	
kl-5 (retired record)	DRSC21161	abnormal cell clusters	
CG9649	DRSC16534	too many neurite branches	
CG10265	DRSC21680	axon bundles split apart	
rhea	DRSC11300	abnormal cell clusters	
